Experimental data as given in PubChem BioAssay AID2284425 (EPA ToxCast).
Listed are the inconclusive results; actives and inactives stand elsewhere. Rule for the calls: active = hit-call score of the fitted dose curve at least 0.9, where 1 is the maximum; inconclusive = response in the unintended direction; inactive = score below 0.9. Potencies beside an inconclusive call are fits to weak or partial responses and may not hold up.

System: Brachyury (BRA), TBXT (gene 6862)
Test: CCTE_Deisenroth_DEVTOX-GLR_Ecto_BRA: CCTE's DevTox GLR-Ecto Assay Evaluation of Brachyury (BRA) Protein Expression, Deisenroth Lab
Procedure: CCTE_Deisenroth_DEVTOX-GLR_Ecto assay is a cell-based, multiplex-readout assay that uses RUES2-GLR, a human pluripotent cell line, with measurements taken at 48 hours after chemical dosing in a 384-well microplateCCTE_Deisenroth_DEVTOX-GLR_Ecto_BRA is 1 of 4 assay components calculated from the CCTE_Deisenroth_DEVTOX-GLR_Ecto assay and it measures an the percentage of cells in an mesoderm state. Using a type of inducible fluorescent protein reporter, gain-of-signal activity can be used to understand changes in gene expression with fluorescent microscopy. The percentage of BRA+ cells are determined by calculating the number of BRA+ cells divided by the cell count. To generalize the intended target to other relatable targets, this assay component is annotated to the transcription factor intended target family, where the subfamily is T-box protein.Data from the assay component CCTE_Deisenroth_DEVTOX-GLR_Ecto_BRA was analyzed as 1 assay endpoint. The endpoint is the percent BRA+ cell population minus the 0.2% DMSO control in the CCTE_Deisenroth_DEVTOX-GLR_Ecto assay. Furthermore, this assay endpoint can be referred to as a secondary readout, because this assay has produced multiple assay endpoints where this one serves as a measure of mesoderm differentiation.
All assay protocols are aligned to the DevTox GLR-Endo assay workflow (Gamble 2022). […]

| SMILES | AC50 |
| --- | --- |
| O=C1CCC(N2C(=O)c3ccccc3C2=O)C(=O)N1 (stereo unspecified) | inconclusive: 100 µM |
